{"source": "patent US4547488A", "about": "“Antibiotic M43D, pharmaceutical compositions and method of use” (priority 1984, dated 1985)", "assay_in_all_cases": "agar-dilution MIC", "assay_type_in_all_cases": "cell-based", "key": {"[1]": {"system": "Staphylococcus aureus V41"}, "[2]": {"system": "Staphylococcus aureus S13E"}, "Escherichia coli EC14": {"system": "Escherichia coli EC14"}, "[3]": {"system": "Streptococcus pneumoniae Park 1"}, "Escherichia coli TEM": {"system": "Escherichia coli TEM"}, "[4]": {"system": "Staphylococcus epidermidis 222"}, "[5]": {"system": "Staphylococcus epidermidis EPI1"}}, "data": [{"compound": "CN[C@H](CC(C)C)C(=O)N[C@H]1C(=O)N[C@@H](CC(N)=O)C(=O)N[C@H]2C(=O)N[C@H]3C(=O)N[C@H](C(=O)N[C@H](C(=O)O)c4cc(O)cc(O)c4-c4cc3ccc4O)[C@H](O)c3ccc(c(Cl)c3)Oc3cc2cc(c3O[C@@H]2O[C@H](CO)[C@@H](O)[C@H](O)[C@H]2O[C@H]2C[C@](C)(N)[C@H](O)[C@H](C)O2)Oc2ccc(cc2Cl)[C@H]1O", "note": "[Vancomycin]", "values": [{"measurement": "MIC", "setting": "[1]", "result": 0.5, "unit": "µg/mL"}, {"measurement": "MIC", "setting": "[2]", "result": 1, "unit": "µg/mL"}, {"measurement": "MIC", "setting": "Escherichia coli EC14", "result": "> 128", "unit": "µg/mL"}, {"measurement": "MIC", "setting": "[3]", "result": 0.125, "unit": "µg/mL"}, {"measurement": "MIC", "setting": "Escherichia coli TEM", "result": 64, "unit": "µg/mL"}, {"measurement": "MIC", "setting": "[4]", "result": 1, "unit": "µg/mL"}, {"measurement": "MIC", "setting": "[5]", "result": 2, "unit": "µg/mL"}]}]}
